Values of other authors, collected in article PMC5316403, “A multicenter assessment of single-cell models aligned to standard measures of cell health for prediction of acute hepatotoxicity” (Archives of Toxicology, 2016).

System: man
Settings: reported to cause hepatotoxicity in man or not; ref references in Table 4; cited from earlier work

SMILES: CCCCc1oc2ccccc2c1C(=O)c1cc(I)c(OCCN(CC)CC)c(I)c1 [Amiodarone]
- Hepatotoxic/non-hepatotoxic: Hepatotoxic
